Like-named read-outs stand apart in the source and are kept apart here. Some results were stated once for a whole list of compounds, not compound by compound. Starred links: 1 amine or outer side, 2 acyl side, 3 side chain; linkers in the order of their positions; H or OH if unused. Positions of bridges follow the written chain, without caps; N, C: chain ends. Non-standard residues stand in square brackets, D forms with d. Residues, ends and D or L forms follow the SMILES beside them. *: point of attachment. X5 = Cn1nc(C(=O)Nc2ccc(-c3ccc(C[C@H](N[*:1])C(=O)[*:2])cc3)cc2)c2ccccc21; dArg(Nω-CH2C6H4-3-CH2Gua) = N=C(N)NCc1cccc(CNC(=N)NCCC[C@@H](N)C(=O)O)c1; X37 = O=C(Nc1ccc(-c2ccc(C[C@H](N[*:1])C(=O)[*:2])cc2)cc1)c1ccc2ccccc2c1; Bip(4'-NH) = O=C([C@H](Cc1ccc(-c2ccc(N[*:3])cc2)cc1)N[*:1])[*:2]; dArg(ω-(3-HO-benzyl)) = N=C(NCCC[C@@H](N)C(=O)O)NCc1cccc(O)c1; Indazole3carbonyl(1-CH2COOH) = O=C(O)Cn1nc(C(=O)*)c2ccccc21; X72 = N=C(N)Nc1ccc(CCNC(=N)NCCC[C@@H](N[*:1])C(=O)[*:2])cc1; Bip(4'-COOH) = N[C@@H](Cc1ccc(-c2ccc(C(=O)O)cc2)cc1)C(=O)O; Bip(4'-NHAc) = CC(=O)Nc1ccc(-c2ccc(C[C@H](N)C(=O)O)cc2)cc1; Indole3carbonyl(1-CH2COOH) = O=C(O)Cn1cc(C(=O)*)c2ccccc21; X29 = N=C(NCCC[C@@H](N[*:1])C(=O)[*:2])NCCc1ccc(F)c(F)c1; X35 = N=C(NCCC[C@@H](N[*:1])C(=O)[*:2])NCCc1ccc(N)cc1; Ala(imidazol-2-yl) = N[C@@H](Cc1ncc[nH]1)C(=O)O; dArg(ω-Bn) = N=C(NCCC[C@@H](N)C(=O)O)NCc1ccccc1; Ala(morpholin-4-yl) = N[C@@H](CN1CCOCC1)C(=O)O; Phe(3-CONH2) = NC(=O)c1cccc(C[C@H](N)C(=O)O)c1; Bip = N[C@@H](Cc1ccc(-c2ccccc2)cc1)C(=O)O; Tic = O=C(O)[C@@H]1Cc2ccccc2CN1; Cha = N[C@@H](CC1CCCCC1)C(=O)O; Chg = N[C@H](C(=O)O)C1CCCCC1; Tle = CC(C)(C)[C@H](N)C(=O)O; Sar = CNCC(=O)O
Biological target: TNFα (Homo sapiens, UniProt P01375)
Assay: TNF-Induced HEK-Blue Assay
Assay type: cell-based
Conditions: read-out: IC50 values measured in the TNF induced HEK-Blue assay
[1] = summary statement for all examples

By UniProt entry, the sequences of proteins in these tests, tags left out. Residues count along the entry.
UniProt P01375, 77-233 limits assumed: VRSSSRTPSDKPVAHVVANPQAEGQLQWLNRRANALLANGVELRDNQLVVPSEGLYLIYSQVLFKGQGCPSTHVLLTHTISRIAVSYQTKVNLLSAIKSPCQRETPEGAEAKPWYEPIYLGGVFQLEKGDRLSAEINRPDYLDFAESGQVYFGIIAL

| SMILES | IC50 [1] | IC50 |
| --- | --- | --- |
| CC(C)C[C@@H]1NC(=O)[C@H](CCCNC(=N)N)NC(=O)[C@H](C(C)C)NC(=O)[C@@H]2CCCN2C(=O)[C@H](C(C)C)NC(=O)[C@@H](CCCNC(=N)NCCc2ccc(F)c(F)c2)NC(=O)[C@H](CC(=O)O)NC(=O)[C@@H]2CCCN2C(=O)CN(C)C(=O)[C@H](Cc2ccc(-c3ccc(NC(=O)c4nn(CC(=O)O)c5ccccc45)cc3)cc2)NC(=O)[C@H](Cc2ccc(-c3ccccc3)cc2)NC(=O)[C@H](CN2CCOCC2)NC(=O)CSC[C@@H](C(=O)NCC(N)=O)NC1=O [Example 423] ({CH2CO}-[Ala(morpholin-4-yl)][Bip][Bip(4'-NH)](Indazole3carbonyl(1-CH2COOH))[Sar]PD[X29]VPVRLCG-NH2; thioether N-13) | ≤ 25 µM | – |
| CC(C)C[C@@H]1NC(=O)[C@H](Cc2ccc(O)cc2)NC(=O)[C@H](C(C)C)NC(=O)[C@@H]2CCCN2C(=O)[C@H](C(C)C)NC(=O)[C@@H](CCCNC(=N)NCc2cccc(CNC(=N)N)c2)NC(=O)[C@H](CC(=O)O)NC(=O)[C@@H]2CCCN2C(=O)CN(C)C(=O)[C@H](Cc2ccc(-c3ccc(NC(=O)c4nn(CC(=O)O)c5ccccc45)cc3)cc2)NC(=O)[C@H](Cc2ccc(-c3ccccc3)cc2)NC(=O)[C@H](CN2CCOCC2)NC(=O)CSC[C@@H](C(=O)NCC(N)=O)NC1=O [Example 622] ({CH2CO}-[Ala(morpholin-4-yl)][Bip][Bip(4'-NH)](Indazole3carbonyl(1-CH2COOH))[Sar]PD[dArg(Nω-CH2C6H4-3-CH2Gua)]VPVYLCG-NH2; thioether N-13) | ≤ 25 µM | – |
| CC[C@H](C)[C@@H]1NC(=O)[C@@H]2CCCN2C(=O)[C@H]([C@@H](C)CC)NC(=O)[C@@H](CCCNC(=N)N)NC(=O)[C@H](CC(=O)O)NC(=O)[C@H](Cc2ccccc2)NC(=O)CN(C)C(=O)[C@H](Cc2ccc(-c3ccc(NC(=O)c4nn(C)c5ccccc45)cc3)cc2)NC(=O)[C@H](Cc2ccc(-c3ccc(C(=O)O)cc3)cc2)NC(=O)[C@H](C(C)(C)C)NC(=O)CSC[C@@H](C(=O)NCC(N)=O)NC(=O)[C@H](CC(C)C)NC(=O)[C@H](Cc2cnc[nH]2)NC1=O [Example 334] ({CH2CO}-[Tle][Bip(4'-COOH)][X5][Sar]FD[dR]IPIHLCG-NH2; thioether N-13) | – | ≤ 25 µM |
| CC(=O)Nc1ccc(-c2ccc(C[C@@H]3NC(=O)[C@H](Cc4ccc(-c5ccccc5)cc4)NC(=O)[C@H](CN4CCOCC4)NC(=O)CSC[C@@H](C(=O)NCC(N)=O)NC(=O)[C@H](CC(C)C)NC(=O)[C@H](Cc4cccc(C(N)=O)c4)NC(=O)[C@H](C4CCCCC4)NC(=O)[C@@H]4CCCN4C(=O)[C@H](C(C)C)NC(=O)[C@@H](CCCNC(=N)N)NC(=O)[C@H](CC(=O)O)NC(=O)[C@H](Cc4ccc(O)cc4)NC(=O)CN(C)C3=O)cc2)cc1 [Example 460] ({CH2CO}-[Ala(morpholin-4-yl)][Bip][Bip(4'-NHAc)][Sar]YD[dR]VP[Chg][Phe(3-CONH2)]LCG-NH2; thioether N-13) | ≤ 25 µM | – |
| CC(C)C[C@@H]1NC(=O)[C@H](CCCNC(=N)N)NC(=O)[C@H](C(C)C)NC(=O)[C@@H]2CCCN2C(=O)[C@H](C(C)C)NC(=O)[C@@H](CCCNC(=N)NCCc2ccc(N)cc2)NC(=O)[C@H](CC(=O)O)NC(=O)[C@@H]2CCCN2C(=O)CN(C)C(=O)[C@H](Cc2ccc(-c3ccc(NC(=O)c4nn(CC(=O)O)c5ccccc45)cc3)cc2)NC(=O)[C@H](Cc2ccc(-c3ccccc3)cc2)NC(=O)[C@H](CN2CCOCC2)NC(=O)CSC[C@@H](C(=O)NCC(N)=O)NC1=O [Example 407] ({CH2CO}-[Ala(morpholin-4-yl)][Bip][Bip(4'-NH)](Indazole3carbonyl(1-CH2COOH))[Sar]PD[X35]VPVRLCG-NH2; thioether N-13) | ≤ 25 µM | – |
| CC[C@H](C)[C@@H]1NC(=O)[C@@H](CCCNC(=N)NCc2cccc(O)c2)NC(=O)[C@H](CC(=O)O)NC(=O)[C@H](Cc2cnc[nH]2)NC(=O)CN(C)C(=O)[C@H](Cc2ccc(-c3ccc(NC(=O)c4nn(CC(=O)O)c5ccccc45)cc3)cc2)NC(=O)[C@H](Cc2ccc(-c3ccc(C(=O)O)cc3)cc2)NC(=O)[C@H](CC2CCCCC2)NC(=O)CSC[C@@H](C(=O)NCC(N)=O)NC(=O)[C@H](CC(C)C)NC(=O)[C@H](Cc2ncc[nH]2)NC(=O)[C@H](C(C)C)NC(=O)[C@@H]2Cc3ccccc3CN2C1=O [Example 561] ({CH2CO}-[Cha][Bip(4'-COOH)][Bip(4'-NH)](Indazole3carbonyl(1-CH2COOH))[Sar]HD[dArg(ω-(3-HO-benzyl))]I[Tic]V[Ala(imidazol-2-yl)]LCG-NH2; thioether N-13) | ≤ 25 µM | – |
| CC(C)C[C@@H]1NC(=O)[C@H](Cc2ccc(O)cc2)NC(=O)[C@H](C(C)C)NC(=O)[C@@H]2CCCN2C(=O)[C@H](C(C)C)NC(=O)[C@@H](CCCNC(=N)NCc2ccccc2)NC(=O)[C@H](CC(=O)O)NC(=O)[C@@H]2CCCN2C(=O)CN(C)C(=O)[C@H](Cc2ccc(-c3ccc(NC(=O)c4cn(CC(=O)O)c5ccccc45)cc3)cc2)NC(=O)[C@H](Cc2ccc(-c3ccc(C(=O)O)cc3)cc2)NC(=O)[C@H](CC2CCCCC2)NC(=O)CSC[C@@H](C(=O)NCC(N)=O)NC1=O [Example 580] ({CH2CO}-[Cha][Bip(4'-COOH)][Bip(4'-NH)](Indole3carbonyl(1-CH2COOH))[Sar]PD[dArg(ω-Bn)]VPVYLCG-NH2; thioether N-13) | ≤ 25 µM | – |
| CC[C@H](C)[C@@H]1NC(=O)[C@@H](CCCNC(=N)N)NC(=O)[C@H](CC(=O)O)NC(=O)[C@H](Cc2cnc[nH]2)NC(=O)CN(C)C(=O)[C@H](Cc2ccc(-c3ccc(NC(=O)c4ccc5ccccc5c4)cc3)cc2)NC(=O)[C@H](Cc2ccc(-c3ccccc3)cc2)NC(=O)[C@H](CC2CCCCC2)NC(=O)CSC[C@@H](C(=O)NCC(N)=O)NC(=O)[C@H](CC(C)C)NC(=O)[C@H](Cc2cnc[nH]2)NC(=O)[C@H](C(C)C)NC(=O)[C@@H]2CCCN2C1=O [Example 322] ({CH2CO}-[Cha][Bip][X37][Sar]HD[dR]IPVHLCG-NH2; thioether N-13) | – | ≤ 25 µM |
| CC(C)C[C@@H]1NC(=O)[C@H](CCCNC(=N)N)NC(=O)[C@H](C(C)C)NC(=O)[C@@H]2CCCN2C(=O)[C@H](C(C)C)NC(=O)[C@@H](CCCNC(=N)NCc2cccc(O)c2)NC(=O)[C@H](CC(=O)O)NC(=O)[C@@H]2CCCN2C(=O)CN(C)C(=O)[C@H](Cc2ccc(-c3ccc(NC(=O)c4cn(CC(=O)O)c5ccccc45)cc3)cc2)NC(=O)[C@H](Cc2ccc(-c3ccccc3)cc2)NC(=O)[C@H](CN2CCOCC2)NC(=O)CSC[C@@H](C(=O)NCC(N)=O)NC1=O [Example 565] ({CH2CO}-[Ala(morpholin-4-yl)][Bip][Bip(4'-NH)](Indole3carbonyl(1-CH2COOH))[Sar]PD[dArg(ω-(3-HO-benzyl))]VPVRLCG-NH2; thioether N-13) | ≤ 25 µM | – |
| CC(C)C[C@@H]1NC(=O)[C@H](CCCNC(=N)N)NC(=O)[C@H](C(C)C)NC(=O)[C@@H]2CCCN2C(=O)[C@H](C(C)C)NC(=O)[C@@H](CCCNC(=N)NCCc2ccc(NC(=N)N)cc2)NC(=O)[C@H](CC(=O)O)NC(=O)[C@@H]2CCCN2C(=O)CN(C)C(=O)[C@H](Cc2ccc(-c3ccc(NC(=O)c4nn(C)c5ccccc45)cc3)cc2)NC(=O)[C@H](Cc2ccc(-c3ccccc3)cc2)NC(=O)[C@H](CN2CCOCC2)NC(=O)CSC[C@@H](C(=O)NCC(N)=O)NC1=O [Example 439] ({CH2CO}-[Ala(morpholin-4-yl)][Bip][X5][Sar]PD[X72]VPVRLCG-NH2; thioether N-13) | – | ≤ 25 µM |
